The record followed here is article PMC10912661.

Sequences of proteins named here, by UniProt entry; tags and fusion partners are left off. Residues count along the entry.
UniProt Q99YA0, residues 169-294: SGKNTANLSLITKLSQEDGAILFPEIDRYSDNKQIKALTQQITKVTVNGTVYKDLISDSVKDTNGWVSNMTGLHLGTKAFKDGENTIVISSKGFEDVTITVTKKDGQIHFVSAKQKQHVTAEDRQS

The test addresses hemoglobin-interacting domain 2 (HID2) of Shr, residues 169-294, wild type (Streptococcus pyogenes) (UniProt Q99YA0). The test can be described thus: SEC; Hiload 26/60 Superdex-75, 20 mM Tris, 200 mM NaCl pH 8.0; last step of the purification of HID2; both purified. For orientation: Size exclusion chromatography separates by hydrodynamic size, large species first.

Results are given in words; binding and its absence hold for the method and conditions named.

As for “hemoglobin-interacting domain 2 (HID2) of Shr, residues 169-294, wild type (from UniProt Q99YA0 169-294) (domain or fragment)”, the binding result was “no binding”.
